Measurements: paper PMC10432564, “Pharmacological perturbation of the phase-separating protein SMNDC1” (Nature Communications, 2023)
Changes are numbered by the printed parent chain. Results are given in words; binding and its absence hold for the method and conditions named. Binding seen in cells or lysates may run through a third protein. Here binding means that the protein was enriched with, or labelled near, the bait; the list need not be complete. For part of these data: A no says only that the protein was not detected with the bait. Blank lines part the entries; values can stand above or below the molecule they belong to.

The chains behind the UniProt entries cited, without tags or fusion partners.
UniProt Q8BTI8: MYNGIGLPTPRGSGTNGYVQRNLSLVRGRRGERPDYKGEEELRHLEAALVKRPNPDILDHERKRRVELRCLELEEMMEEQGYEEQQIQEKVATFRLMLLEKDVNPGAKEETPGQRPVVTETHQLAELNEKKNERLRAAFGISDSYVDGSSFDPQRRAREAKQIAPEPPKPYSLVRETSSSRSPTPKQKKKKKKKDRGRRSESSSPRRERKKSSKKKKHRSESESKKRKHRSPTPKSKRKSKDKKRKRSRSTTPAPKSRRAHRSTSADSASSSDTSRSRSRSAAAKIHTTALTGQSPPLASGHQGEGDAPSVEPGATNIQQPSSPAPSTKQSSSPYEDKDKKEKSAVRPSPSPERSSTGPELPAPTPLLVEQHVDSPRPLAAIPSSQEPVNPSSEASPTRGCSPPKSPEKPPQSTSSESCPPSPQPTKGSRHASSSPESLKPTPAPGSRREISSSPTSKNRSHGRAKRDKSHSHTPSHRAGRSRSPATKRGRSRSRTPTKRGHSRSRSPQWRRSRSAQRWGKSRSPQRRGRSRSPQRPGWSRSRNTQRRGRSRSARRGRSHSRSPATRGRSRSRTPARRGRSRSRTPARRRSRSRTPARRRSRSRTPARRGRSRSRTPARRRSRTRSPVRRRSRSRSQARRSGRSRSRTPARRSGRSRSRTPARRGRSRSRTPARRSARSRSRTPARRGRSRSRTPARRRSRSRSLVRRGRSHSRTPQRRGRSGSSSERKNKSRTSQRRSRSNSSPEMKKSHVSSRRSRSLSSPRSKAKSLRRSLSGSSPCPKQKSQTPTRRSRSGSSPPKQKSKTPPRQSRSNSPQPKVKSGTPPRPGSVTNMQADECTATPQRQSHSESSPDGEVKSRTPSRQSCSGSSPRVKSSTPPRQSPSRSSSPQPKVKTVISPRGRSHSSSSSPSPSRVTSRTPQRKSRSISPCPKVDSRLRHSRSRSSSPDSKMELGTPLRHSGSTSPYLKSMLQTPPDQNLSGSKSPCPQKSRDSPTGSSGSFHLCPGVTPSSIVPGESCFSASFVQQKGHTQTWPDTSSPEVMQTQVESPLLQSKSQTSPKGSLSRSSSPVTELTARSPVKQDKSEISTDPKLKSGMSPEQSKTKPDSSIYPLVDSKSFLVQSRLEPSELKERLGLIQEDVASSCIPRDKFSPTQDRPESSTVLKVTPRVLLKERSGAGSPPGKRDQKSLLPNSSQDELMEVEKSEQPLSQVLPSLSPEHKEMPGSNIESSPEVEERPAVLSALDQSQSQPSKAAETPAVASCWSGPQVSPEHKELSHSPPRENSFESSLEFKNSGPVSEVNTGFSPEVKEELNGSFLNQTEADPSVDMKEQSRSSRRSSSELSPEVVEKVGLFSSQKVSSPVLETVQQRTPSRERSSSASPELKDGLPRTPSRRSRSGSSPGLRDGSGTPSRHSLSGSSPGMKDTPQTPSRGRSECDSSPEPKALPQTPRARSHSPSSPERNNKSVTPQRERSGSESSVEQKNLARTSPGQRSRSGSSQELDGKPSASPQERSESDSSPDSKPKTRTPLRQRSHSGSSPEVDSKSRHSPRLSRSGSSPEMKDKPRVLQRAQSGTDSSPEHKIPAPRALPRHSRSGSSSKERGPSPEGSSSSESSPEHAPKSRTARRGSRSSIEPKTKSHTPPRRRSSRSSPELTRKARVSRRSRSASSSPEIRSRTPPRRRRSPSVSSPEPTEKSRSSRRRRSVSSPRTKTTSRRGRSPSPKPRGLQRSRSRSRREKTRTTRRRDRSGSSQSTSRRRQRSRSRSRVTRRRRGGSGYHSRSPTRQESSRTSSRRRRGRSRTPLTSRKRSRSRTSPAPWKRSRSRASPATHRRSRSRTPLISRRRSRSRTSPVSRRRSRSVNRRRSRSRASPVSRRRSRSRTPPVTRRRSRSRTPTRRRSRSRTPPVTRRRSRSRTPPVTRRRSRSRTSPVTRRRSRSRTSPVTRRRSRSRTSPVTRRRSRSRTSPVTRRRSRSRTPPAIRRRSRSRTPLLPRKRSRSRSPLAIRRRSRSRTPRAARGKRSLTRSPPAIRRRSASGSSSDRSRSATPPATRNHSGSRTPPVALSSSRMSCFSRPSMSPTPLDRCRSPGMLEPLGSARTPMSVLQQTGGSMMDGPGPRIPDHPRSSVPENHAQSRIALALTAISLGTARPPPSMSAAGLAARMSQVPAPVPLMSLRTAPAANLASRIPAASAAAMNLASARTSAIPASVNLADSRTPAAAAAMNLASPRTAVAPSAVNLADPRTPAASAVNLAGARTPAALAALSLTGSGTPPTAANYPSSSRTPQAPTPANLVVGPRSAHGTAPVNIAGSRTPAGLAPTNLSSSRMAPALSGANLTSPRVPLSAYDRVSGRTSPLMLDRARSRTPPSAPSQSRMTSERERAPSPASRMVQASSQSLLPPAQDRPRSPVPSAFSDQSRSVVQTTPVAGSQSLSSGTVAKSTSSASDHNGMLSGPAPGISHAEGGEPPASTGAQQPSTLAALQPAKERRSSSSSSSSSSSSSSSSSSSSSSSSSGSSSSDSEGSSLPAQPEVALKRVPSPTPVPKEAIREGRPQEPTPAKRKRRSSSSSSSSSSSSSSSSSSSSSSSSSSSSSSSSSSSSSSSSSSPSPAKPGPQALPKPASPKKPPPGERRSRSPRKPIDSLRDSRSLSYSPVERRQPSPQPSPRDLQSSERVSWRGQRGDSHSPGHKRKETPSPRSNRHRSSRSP
UniProt Q9QX47: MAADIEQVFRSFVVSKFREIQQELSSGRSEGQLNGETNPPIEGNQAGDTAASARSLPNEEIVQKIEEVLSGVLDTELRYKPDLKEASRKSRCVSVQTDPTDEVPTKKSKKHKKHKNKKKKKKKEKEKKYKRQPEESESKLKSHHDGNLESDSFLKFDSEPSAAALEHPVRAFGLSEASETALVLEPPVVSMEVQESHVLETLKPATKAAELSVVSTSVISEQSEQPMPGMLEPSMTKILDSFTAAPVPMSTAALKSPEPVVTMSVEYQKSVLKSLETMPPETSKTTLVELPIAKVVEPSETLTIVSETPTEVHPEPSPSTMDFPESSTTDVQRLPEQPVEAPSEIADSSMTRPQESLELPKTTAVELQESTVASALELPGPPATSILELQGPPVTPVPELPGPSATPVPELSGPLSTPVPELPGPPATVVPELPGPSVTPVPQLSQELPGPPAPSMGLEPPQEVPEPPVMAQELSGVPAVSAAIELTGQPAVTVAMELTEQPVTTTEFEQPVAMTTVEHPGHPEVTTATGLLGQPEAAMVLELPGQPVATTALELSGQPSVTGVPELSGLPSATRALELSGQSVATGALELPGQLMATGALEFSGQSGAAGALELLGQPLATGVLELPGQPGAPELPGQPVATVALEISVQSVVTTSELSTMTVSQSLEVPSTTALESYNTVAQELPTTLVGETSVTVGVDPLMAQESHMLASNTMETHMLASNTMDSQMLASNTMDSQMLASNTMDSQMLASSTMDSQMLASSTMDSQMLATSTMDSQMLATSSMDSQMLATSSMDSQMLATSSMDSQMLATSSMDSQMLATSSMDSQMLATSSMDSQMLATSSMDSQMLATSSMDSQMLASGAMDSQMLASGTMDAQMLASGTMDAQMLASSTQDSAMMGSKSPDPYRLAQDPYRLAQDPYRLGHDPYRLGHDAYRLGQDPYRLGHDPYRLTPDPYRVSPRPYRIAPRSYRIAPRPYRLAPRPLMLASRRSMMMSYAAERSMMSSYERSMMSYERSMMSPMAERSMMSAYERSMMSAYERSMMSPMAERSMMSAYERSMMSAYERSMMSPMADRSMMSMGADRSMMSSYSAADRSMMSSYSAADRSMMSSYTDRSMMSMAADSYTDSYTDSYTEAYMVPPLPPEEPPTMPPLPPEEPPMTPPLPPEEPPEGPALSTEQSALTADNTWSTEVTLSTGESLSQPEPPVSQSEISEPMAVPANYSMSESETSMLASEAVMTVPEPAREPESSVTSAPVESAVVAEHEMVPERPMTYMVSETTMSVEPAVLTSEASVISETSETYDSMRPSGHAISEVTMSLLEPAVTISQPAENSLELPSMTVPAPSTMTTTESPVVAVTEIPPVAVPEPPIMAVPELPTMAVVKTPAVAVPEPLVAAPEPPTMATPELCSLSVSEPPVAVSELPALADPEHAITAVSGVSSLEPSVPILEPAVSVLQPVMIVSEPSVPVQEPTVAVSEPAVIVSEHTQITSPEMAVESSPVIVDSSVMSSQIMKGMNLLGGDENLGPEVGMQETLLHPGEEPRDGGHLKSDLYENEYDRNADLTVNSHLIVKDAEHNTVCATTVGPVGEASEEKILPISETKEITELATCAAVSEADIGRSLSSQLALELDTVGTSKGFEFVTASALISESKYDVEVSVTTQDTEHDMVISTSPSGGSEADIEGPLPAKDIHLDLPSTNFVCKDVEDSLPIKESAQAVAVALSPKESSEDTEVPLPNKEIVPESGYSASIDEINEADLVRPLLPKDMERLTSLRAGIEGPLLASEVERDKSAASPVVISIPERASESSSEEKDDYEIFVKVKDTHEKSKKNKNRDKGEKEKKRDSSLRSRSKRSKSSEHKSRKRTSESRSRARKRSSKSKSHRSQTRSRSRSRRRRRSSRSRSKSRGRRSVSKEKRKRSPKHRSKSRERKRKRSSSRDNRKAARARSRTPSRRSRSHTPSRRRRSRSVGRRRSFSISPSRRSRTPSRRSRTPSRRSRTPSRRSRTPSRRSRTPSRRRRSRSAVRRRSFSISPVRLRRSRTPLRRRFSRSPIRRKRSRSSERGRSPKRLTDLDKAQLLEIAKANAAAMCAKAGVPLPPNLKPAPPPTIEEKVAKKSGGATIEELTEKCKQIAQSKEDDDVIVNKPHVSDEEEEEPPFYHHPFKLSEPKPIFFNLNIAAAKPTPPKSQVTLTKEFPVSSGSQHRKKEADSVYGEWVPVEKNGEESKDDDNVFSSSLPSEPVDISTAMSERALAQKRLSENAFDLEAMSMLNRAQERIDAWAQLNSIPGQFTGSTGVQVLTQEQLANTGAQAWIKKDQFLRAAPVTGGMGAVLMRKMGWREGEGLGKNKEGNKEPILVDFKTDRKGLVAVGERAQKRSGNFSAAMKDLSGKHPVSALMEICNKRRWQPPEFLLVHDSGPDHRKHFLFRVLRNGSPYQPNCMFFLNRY

Assays:
APEX2-SMNDC1^FL [1] = target: T1, APEX2-SMNDC1^FL (UniProt O75940); assay: proximity labelling; APEX2 fusion stably expressed in cells; 0.5 mM biotin-phenol 30 min, 1 mM H2O2 1 min; streptavidin enrichment, TMT mass spectrometry; compared with APEX2-SMNDC1^TD; cells treated with DMSO or compound 1
T1 sequence: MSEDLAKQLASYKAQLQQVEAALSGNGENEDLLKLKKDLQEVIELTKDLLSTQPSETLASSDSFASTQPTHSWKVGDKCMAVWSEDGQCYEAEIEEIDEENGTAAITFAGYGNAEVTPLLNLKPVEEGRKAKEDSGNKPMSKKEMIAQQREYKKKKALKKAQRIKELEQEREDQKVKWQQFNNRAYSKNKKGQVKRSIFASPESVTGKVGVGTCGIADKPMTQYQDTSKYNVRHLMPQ

APEX2-SMNDC1^FL [2] = target: T1, APEX2-SMNDC1^FL; assay: condition: only cells treated with the inhibitor (compound 1); proximity labelling; as a3, cells treated with the inhibitor (compound 1); biotin-labeled proteins pulled down on streptavidin beads and detected by western blot
APEX2-SMNDC1^FL [3] = target: T1, APEX2-SMNDC1^FL; assay: proximity labelling; APEX2 fusion stably expressed in cells; biotin-labeled proteins pulled down on streptavidin beads and detected by western blot (antibodies against SMNDC1, SFPQ, APEX2); control cells without the inhibitor
APEX2-SMNDC1^FL [4] = target: T1, APEX2-SMNDC1^FL; assay: proximity labelling; APEX2 fusion stably expressed in cells; 0.5 mM biotin-phenol 30 min, 1 mM H2O2 1 min; streptavidin enrichment, TMT mass spectrometry; compared with APEX2-SMNDC1^TD; cells treated with DMSO or compound 1; remark: listed apart in the source

binding (APEX2-SMNDC1^FL [2]): no binding | binding (APEX2-SMNDC1^FL [3]): binds | binding (APEX2-SMNDC1^FL [4]): binds
B1: endogenous SMNDC1 (protein, UniProt Q8BGT7 1-238)
chain: T1 sequence with G110V

binding (APEX2-SMNDC1^FL [2]): no binding | binding (APEX2-SMNDC1^FL [3]): binds
B3: splicing factor SFPQ (protein, UniProt Q8VIJ6 1-699)
chain: MSRDRFRSRGGGGGGFHRRGGGGGRGGLHDFRSPPPGMGLNQNRGPMGPGPGGPKPPLPPPPPHQQQQQPPPQQPPPQQPPPHQQPPPHQPPHQQPPPPPQESKPVVPQGPGSAPGVSSAPPPAVSAPPANPPTTGAPPGPGPTPTPPPAVPSTAPGPPPPSTPSSGVSTTPPQTGGPPPPPAGGAGPGPKPGPGPGGPKGGKMPGGPKPGGGPGMGAPGGHPKPPHRGGGEPRGGRQHHAPYHQQHHQGPPPGGPGPRTEEKISDSEGFKANLSLLRRPGEKTYTQRCRLFVGNLPADITEDEFKRLFAKYGEPGEVFINKGKGFGFIKLESRALAEIAKAELDDTPMRGRQLRVRFATHAAALSVRNLSPYVSNELLEEAFSQFGPIERAVVIVDDRGRSTGKGIVEFASKPAARKAFERCSEGVFLLTTTPRPVIVEPLEQLDDEDGLPEKLAQKNPMYQKERETPPRFAQHGTFEYEYSQRWKSLDEMEKQQREQVEKNMKDAKDKLESEMEDAYHEHQANLLRQDLMRRQEELRRMEELHSQEMQKRKEMQLRQEEERRRREEEMMIRQREMEEQMRRQREESYSRMGYMDPRERDMRMGGGGTMNMGDPYGSGGQKFPPLGGGGGIGYEANPGVPPATMSGSMMGSDMRTERFGQGGAGPVGGQGPRGMGPGTPAGYGRGREEYEGPNKKPRF
modifications: sDMA-modified (sites not given)

Second part, the molecule before the results:

Molecule: SRRM2 (from UniProt Q8BTI8 1-2703)
binding (APEX2-SMNDC1^FL [1]): binds

Molecule: SON (from UniProt Q9QX47 1-2444)
binding (APEX2-SMNDC1^FL [1]): binds

B2: APEX2-SMNDC1^FL (protein, UniProt O75940 1-238)
chain: T1 sequence
binding (APEX2-SMNDC1^FL [2]): no binding | binding (APEX2-SMNDC1^FL [3]): binds
